The supplement of paper PMC12819154, “High-throughput peptide-centric local stability assay extends protein–ligand identification to membrane proteins, tissues and bacteria” (Nature Structural & Molecular Biology, 2025)
This is one part of the list. Most entries show no effect beyond the scatter of the controls.

By UniProt entry, the sequences of proteins in these tests, tags left out. Where a name states a change or a piece, a line headed by the entry shows the natural chain unless it says otherwise.
UniProt P53680: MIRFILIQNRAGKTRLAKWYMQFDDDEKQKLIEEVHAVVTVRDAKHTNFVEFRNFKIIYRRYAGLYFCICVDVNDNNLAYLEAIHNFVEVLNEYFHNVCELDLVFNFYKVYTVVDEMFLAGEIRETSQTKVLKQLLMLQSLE
UniProt P49755: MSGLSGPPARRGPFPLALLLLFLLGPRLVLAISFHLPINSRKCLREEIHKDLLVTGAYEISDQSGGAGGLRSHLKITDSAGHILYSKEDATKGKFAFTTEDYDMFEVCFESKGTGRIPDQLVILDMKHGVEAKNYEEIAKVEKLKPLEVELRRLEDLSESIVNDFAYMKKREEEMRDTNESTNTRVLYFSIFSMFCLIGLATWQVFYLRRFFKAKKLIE
UniProt P49589: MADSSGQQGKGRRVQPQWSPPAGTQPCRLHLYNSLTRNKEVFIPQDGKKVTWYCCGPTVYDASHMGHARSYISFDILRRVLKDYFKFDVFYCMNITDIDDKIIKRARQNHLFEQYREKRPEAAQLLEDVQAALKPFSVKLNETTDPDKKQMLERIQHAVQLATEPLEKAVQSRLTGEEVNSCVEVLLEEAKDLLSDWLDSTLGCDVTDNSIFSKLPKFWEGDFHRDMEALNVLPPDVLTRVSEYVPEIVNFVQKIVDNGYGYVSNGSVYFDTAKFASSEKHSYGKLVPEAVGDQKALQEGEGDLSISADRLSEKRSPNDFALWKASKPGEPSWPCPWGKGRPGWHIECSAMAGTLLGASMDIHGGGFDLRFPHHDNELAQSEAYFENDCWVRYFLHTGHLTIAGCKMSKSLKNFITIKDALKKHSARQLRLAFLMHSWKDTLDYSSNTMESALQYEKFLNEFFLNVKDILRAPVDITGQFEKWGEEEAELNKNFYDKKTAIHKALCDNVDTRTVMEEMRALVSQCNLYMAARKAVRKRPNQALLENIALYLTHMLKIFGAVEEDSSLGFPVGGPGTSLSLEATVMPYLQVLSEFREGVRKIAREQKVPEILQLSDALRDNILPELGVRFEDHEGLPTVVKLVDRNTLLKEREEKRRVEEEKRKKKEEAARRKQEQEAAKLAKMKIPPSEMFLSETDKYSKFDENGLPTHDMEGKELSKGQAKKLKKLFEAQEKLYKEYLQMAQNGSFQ
UniProt P47756, whole entry: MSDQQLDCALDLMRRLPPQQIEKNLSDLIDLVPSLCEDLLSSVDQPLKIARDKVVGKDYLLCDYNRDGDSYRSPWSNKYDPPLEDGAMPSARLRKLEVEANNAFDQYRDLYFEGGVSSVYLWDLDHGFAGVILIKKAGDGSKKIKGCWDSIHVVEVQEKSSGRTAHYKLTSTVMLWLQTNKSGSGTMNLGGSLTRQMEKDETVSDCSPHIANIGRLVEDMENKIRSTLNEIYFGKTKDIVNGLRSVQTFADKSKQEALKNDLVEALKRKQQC
UniProt P52747: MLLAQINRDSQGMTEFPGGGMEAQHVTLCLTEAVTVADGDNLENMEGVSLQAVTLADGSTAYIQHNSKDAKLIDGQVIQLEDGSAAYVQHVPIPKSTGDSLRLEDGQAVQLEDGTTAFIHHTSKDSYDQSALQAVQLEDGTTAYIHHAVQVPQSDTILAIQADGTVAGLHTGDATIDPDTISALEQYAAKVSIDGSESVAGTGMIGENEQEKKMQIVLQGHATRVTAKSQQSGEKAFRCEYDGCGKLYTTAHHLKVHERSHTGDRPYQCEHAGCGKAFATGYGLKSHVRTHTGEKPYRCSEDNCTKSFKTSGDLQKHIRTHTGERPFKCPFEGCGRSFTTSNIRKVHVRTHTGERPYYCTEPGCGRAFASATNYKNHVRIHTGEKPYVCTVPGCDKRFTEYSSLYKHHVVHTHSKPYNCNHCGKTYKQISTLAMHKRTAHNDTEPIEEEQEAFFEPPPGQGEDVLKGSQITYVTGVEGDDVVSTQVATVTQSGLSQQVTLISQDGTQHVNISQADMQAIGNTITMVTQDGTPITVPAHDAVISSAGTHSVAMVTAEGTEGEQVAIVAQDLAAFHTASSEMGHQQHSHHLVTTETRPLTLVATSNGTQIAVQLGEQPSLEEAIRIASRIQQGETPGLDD
UniProt P50991: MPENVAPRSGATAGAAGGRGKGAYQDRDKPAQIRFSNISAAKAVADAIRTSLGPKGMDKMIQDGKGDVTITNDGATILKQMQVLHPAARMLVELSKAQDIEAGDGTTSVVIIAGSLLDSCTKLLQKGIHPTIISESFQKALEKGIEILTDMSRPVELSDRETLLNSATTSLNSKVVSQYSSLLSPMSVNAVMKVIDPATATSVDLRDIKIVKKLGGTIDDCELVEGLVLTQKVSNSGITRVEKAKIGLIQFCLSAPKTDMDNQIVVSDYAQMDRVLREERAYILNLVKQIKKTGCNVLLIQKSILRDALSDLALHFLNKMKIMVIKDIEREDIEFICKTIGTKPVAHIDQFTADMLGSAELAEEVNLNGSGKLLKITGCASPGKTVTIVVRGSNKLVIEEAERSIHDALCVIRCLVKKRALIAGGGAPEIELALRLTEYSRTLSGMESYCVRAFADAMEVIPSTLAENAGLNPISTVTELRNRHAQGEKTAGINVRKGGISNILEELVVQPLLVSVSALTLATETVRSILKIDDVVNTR
UniProt P52895: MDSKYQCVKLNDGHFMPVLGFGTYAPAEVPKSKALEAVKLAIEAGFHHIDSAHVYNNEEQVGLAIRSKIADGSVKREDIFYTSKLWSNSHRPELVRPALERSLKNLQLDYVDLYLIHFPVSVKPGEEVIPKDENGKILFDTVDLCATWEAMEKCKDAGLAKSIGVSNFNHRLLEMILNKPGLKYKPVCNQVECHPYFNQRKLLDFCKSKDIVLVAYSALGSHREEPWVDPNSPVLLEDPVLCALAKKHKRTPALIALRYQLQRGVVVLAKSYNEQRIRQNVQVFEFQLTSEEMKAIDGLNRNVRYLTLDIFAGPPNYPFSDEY
UniProt P51665: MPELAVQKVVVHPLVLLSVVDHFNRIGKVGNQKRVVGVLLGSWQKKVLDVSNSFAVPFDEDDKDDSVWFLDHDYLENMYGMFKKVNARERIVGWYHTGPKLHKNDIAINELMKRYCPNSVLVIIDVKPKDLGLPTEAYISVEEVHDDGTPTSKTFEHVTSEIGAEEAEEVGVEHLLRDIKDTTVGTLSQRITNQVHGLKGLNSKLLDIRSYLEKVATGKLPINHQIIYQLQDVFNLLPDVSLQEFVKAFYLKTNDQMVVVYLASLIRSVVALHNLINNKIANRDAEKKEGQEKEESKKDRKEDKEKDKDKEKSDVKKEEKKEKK
UniProt P53990, whole entry: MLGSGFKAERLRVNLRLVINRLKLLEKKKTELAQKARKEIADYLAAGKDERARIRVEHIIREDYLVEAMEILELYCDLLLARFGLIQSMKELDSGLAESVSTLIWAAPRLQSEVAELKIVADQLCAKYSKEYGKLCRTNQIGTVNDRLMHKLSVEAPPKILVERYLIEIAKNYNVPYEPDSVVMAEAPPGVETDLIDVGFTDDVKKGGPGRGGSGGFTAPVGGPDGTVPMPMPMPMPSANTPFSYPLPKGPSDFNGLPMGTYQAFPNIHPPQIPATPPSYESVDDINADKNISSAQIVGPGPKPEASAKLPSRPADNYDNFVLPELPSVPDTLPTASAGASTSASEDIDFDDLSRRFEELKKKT
UniProt P48449: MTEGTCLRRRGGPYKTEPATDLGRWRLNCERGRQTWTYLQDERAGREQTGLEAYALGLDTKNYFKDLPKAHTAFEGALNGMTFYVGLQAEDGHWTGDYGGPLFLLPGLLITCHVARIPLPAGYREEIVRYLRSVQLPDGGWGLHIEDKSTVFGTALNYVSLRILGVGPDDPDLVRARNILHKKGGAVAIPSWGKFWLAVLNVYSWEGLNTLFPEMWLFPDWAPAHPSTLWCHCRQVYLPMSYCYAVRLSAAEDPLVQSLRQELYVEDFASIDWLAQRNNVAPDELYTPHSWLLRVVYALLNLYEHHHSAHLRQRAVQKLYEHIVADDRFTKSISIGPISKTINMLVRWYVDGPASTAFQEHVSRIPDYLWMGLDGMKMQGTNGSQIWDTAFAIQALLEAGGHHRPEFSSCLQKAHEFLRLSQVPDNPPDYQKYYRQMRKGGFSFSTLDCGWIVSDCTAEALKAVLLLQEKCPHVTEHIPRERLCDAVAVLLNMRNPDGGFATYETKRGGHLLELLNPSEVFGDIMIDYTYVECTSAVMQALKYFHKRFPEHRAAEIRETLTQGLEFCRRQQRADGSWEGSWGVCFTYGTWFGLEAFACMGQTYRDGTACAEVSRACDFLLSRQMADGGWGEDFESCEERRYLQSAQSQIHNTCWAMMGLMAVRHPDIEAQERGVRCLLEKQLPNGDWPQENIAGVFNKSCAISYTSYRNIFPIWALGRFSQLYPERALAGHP
UniProt P54274: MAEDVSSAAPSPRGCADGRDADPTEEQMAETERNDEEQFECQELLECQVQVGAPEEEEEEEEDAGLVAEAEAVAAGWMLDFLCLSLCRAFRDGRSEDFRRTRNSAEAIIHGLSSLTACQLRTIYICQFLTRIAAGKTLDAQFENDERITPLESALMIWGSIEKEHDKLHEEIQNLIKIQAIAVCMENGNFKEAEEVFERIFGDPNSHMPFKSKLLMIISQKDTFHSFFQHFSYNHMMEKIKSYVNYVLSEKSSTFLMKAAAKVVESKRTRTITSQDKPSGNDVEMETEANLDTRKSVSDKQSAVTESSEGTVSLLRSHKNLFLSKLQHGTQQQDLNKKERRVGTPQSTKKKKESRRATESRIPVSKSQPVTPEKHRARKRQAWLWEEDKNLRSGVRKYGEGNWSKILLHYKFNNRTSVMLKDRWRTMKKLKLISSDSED
UniProt P54368: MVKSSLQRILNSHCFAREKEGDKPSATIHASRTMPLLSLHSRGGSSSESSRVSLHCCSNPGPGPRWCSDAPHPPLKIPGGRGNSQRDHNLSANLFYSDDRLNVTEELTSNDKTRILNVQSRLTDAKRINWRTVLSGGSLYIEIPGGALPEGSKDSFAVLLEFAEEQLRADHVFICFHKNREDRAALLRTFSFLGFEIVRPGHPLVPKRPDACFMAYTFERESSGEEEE
UniProt P53365: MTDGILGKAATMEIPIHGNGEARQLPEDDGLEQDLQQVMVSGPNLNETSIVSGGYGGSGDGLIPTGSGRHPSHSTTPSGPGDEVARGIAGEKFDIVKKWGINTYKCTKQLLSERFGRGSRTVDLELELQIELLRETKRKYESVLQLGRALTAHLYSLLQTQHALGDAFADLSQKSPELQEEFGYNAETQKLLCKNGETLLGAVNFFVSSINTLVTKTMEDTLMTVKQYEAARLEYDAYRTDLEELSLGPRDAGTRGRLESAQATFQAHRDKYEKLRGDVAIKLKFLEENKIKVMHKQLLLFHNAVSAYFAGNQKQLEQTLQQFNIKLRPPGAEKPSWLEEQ
UniProt P49765: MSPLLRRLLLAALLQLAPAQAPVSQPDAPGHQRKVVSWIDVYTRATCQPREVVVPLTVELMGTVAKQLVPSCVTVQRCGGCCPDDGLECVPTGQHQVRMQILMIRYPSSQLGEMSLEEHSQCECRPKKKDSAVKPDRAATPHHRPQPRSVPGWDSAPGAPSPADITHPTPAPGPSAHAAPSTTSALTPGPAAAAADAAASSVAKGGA
UniProt P49918: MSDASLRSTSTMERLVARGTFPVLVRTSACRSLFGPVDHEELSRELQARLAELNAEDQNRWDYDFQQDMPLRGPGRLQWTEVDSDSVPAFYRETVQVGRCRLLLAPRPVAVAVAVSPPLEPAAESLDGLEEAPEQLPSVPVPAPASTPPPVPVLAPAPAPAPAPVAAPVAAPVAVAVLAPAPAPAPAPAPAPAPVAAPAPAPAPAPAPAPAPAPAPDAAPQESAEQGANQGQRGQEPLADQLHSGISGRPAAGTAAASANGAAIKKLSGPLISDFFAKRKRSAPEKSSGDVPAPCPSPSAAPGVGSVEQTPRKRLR
UniProt P46736, whole entry: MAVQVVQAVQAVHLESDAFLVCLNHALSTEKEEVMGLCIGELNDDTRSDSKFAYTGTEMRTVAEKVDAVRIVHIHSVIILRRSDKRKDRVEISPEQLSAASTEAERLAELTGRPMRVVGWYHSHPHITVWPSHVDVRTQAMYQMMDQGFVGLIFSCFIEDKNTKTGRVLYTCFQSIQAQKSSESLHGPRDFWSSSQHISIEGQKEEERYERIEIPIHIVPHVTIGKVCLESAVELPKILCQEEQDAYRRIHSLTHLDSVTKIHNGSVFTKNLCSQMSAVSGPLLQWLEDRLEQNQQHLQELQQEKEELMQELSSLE
UniProt P53609, whole entry, looked up: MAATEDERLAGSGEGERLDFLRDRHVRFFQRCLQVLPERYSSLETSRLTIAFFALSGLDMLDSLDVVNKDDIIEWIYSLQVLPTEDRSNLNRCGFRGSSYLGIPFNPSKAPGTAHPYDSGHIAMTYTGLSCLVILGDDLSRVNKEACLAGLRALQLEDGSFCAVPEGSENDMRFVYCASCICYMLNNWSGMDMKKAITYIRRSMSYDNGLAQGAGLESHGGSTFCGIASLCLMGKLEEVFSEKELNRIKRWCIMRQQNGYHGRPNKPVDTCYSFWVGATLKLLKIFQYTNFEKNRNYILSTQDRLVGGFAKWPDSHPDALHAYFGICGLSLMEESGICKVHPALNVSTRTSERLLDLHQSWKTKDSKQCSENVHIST

Compound: Cc1nc(Nc2ncc(C(=O)Nc3c(C)cccc3Cl)s2)cc(N2CCN(CCO)CC2)n1 [dasatinib]
Assay: log2 fold change of tryptic peptide abundance, ligand vs vehicle (limited proteolysis) (log2 ratio); higher = more trypsin-susceptible (destabilized)
Conditions: ligand concentration: 5 uM; sample: K562 cleared lysate

Target	log2 fold change
JAK3 (peptide sequence: KLQFYEDR, peptide start residue: 762) (UniProt P52333)	0.0755
UniProt P52434 (peptide sequence: LHCESESFK, peptide start residue: 28)	0.229
NRIP1 (peptide sequence: VMSEPLSCAAR, peptide start residue: 229) (UniProt P48552)	-0.443
UniProt P53680 (peptide sequence: HTNFVEFR, peptide start residue: 46)	-0.151
TMED10 (peptide sequence: ITDSAGHILYSKEDATK, peptide start residue: 76) (UniProt P49755)	0.635
CARS (peptide sequence: KQEQEAAKLAK, peptide start residue: 672) (UniProt P49589)	0.871
CLK3 (peptide sequence: EAARLEINVLKK, peptide start residue: 344) (UniProt P49761)	1
RPS10 (peptide sequence: RSAVPPGADKK, peptide start residue: 129) (UniProt P46783)	0.0974
CAPZB (peptide sequence: SGSGTMNLGGSLTR, peptide start residue: 182) (UniProt P47756)	-0.236
GCLC (peptide sequence: YSGSKTDSSN, peptide start residue: 628) (UniProt P48506)	0.663
RPL21 (peptide sequence: INVRIEHIKHSK, peptide start residue: 89) (UniProt P46778)	0.468
ZNF143 (peptide sequence: LEDGQAVQLEDGTTAFIHHTSK, peptide start residue: 103) (UniProt P52747)	0.488
KNTC1 (peptide sequence: HCGKPVPPDTAPCEILK, peptide start residue: 2186) (UniProt P50748)	0.392
CCT4 (peptide sequence: EDIEFICK, peptide start residue: 331) (UniProt P50991)	-0.468
AKR1C2 (peptide sequence: LLEMILNKPGLK, peptide start residue: 172) (UniProt P52895)	0.121
CRIP2 (peptide sequence: GVNTGAVGSYIYDRDPEGK, peptide start residue: 187) (UniProt P52943)	0.0884
CCT5 (peptide sequence: LMGLEALKSHIMAAK, peptide start residue: 28) (UniProt P48643)	0.402
PSMD7 (peptide sequence: VVVHPLVLLSVVDHFNR, peptide start residue: 9) (UniProt P51665)	0.523
UniProt P53990 (peptide sequence: KEIADYLAAGKDER, peptide start residue: 38)	-0.14

Target	log2 fold change
CDK8 (peptide sequence: NTYTNCSLIK, peptide start residue: 286) (UniProt P49336)	0.19
GSS (peptide sequence: QYSLQNWEAR, peptide start residue: 274) (UniProt P48637)	-0.294
NCBP2 (peptide sequence: SGGQVRDEYRQDYDAGR, peptide start residue: 130) (UniProt P52298)	-0.338
CAPZA2 (peptide sequence: ICFKFDHLRK, peptide start residue: 94) (UniProt P47755)	0.437
EIF2B2 (peptide sequence: IESFVETLKR, peptide start residue: 15) (UniProt P49770)	0.363
LSS (peptide sequence: WYVDGPASTAFQEHVSR, peptide start residue: 348) (UniProt P48449)	0.0832
TERF1 (peptide sequence: QAWLWEEDKNLR, peptide start residue: 381) (UniProt P54274)	-0.161
UniProt P54368 (peptide sequence: WCSDAPHPPLKIPGGR, peptide start residue: 66)	0.302
ARFIP2 (peptide sequence: LESAQATFQAHR, peptide start residue: 258) (UniProt P53365)	0.506
UniProt P49765 (peptide sequence: YPSSQLGEMSLEEHSQCECRPK, peptide start residue: 106)	-0.471
MCM2 (peptide sequence: ERISDMCK, peptide start residue: 217) (UniProt P49736)	0.475
RGS19 (peptide sequence: FLSSPTYR, peptide start residue: 196) (UniProt P49795)	0.145
GMPS (peptide sequence: THHNDTELIR, peptide start residue: 390) (UniProt P49915)	-0.208
HSPA13 (peptide sequence: LGGQDFNQR, peptide start residue: 254) (UniProt P48723)	0.151
CDKN1C (peptide sequence: SLFGPVDHEELSR, peptide start residue: 32) (UniProt P49918)	-0.112
BRCC3 (peptide sequence: ILCQEEQDAYRR, peptide start residue: 238) (UniProt P46736)	0.198
ACADVL (peptide sequence: SFAVGMFK, peptide start residue: 72) (UniProt P49748)	-0.321
PGGT1B (peptide sequence: QCSENVHIST, peptide start residue: 368) (UniProt P53609)	0.00546

An excerpt taken from the entries so far, for reference:
Target	log2 fold change
CAPZA2 (peptide sequence: ICFKFDHLRK, peptide start residue: 94) (UniProt P47755)	0.437
EIF2B2 (peptide sequence: IESFVETLKR, peptide start residue: 15) (UniProt P49770)	0.363
